Measured values from the supplement of paper PMC10849652.
The other results are listed elsewhere or left out.

Amino acid sequences for entries named in this document (tags omitted). A change or cut given only in a name is not applied to a line headed by its entry.
UniProt P78345: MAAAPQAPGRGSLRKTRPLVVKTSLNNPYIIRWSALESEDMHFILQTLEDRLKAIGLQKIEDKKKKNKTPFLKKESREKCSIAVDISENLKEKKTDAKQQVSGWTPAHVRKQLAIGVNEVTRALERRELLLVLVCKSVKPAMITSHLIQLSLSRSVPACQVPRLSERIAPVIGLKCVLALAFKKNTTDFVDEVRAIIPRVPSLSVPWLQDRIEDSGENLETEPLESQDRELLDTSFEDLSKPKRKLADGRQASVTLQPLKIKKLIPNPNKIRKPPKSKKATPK
UniProt Q96S38: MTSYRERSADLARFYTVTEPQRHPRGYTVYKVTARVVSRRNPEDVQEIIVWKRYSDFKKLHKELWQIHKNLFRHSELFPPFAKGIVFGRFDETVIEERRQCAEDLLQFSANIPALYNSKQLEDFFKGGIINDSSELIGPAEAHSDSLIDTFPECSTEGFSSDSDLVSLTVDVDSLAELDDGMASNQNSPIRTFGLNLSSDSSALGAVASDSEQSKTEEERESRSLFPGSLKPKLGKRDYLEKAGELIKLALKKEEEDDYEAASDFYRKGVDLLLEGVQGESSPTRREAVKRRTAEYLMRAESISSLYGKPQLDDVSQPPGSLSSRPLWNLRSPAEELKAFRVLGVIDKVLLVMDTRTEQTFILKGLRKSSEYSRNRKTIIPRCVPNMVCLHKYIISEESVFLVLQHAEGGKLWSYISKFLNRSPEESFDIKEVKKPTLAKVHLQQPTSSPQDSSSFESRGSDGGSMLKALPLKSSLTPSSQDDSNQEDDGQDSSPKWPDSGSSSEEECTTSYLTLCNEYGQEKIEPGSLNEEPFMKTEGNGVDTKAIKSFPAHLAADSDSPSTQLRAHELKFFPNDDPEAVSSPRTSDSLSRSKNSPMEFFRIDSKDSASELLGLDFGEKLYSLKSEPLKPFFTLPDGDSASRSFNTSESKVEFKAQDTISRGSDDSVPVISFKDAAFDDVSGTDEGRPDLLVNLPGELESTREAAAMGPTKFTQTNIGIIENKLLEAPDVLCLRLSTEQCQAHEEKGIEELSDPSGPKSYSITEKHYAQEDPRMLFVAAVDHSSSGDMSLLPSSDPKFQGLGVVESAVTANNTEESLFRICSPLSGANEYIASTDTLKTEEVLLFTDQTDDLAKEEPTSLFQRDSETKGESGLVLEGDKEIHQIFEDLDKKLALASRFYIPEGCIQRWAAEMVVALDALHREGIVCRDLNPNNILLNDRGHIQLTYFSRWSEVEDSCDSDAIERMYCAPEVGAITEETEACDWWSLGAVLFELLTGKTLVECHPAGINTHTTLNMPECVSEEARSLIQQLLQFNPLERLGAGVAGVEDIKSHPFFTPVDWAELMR
UniProt Q92901: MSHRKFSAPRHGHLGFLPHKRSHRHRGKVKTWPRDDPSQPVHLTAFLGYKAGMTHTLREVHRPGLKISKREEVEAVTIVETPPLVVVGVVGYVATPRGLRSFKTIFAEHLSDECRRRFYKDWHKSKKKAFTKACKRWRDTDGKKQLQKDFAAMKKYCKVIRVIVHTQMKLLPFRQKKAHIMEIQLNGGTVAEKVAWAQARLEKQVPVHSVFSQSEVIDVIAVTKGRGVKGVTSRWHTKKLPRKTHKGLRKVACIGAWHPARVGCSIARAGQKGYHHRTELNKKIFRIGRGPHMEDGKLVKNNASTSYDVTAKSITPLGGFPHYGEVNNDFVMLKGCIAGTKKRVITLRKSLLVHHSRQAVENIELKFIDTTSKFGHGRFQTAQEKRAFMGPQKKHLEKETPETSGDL
UniProt Q96BH1: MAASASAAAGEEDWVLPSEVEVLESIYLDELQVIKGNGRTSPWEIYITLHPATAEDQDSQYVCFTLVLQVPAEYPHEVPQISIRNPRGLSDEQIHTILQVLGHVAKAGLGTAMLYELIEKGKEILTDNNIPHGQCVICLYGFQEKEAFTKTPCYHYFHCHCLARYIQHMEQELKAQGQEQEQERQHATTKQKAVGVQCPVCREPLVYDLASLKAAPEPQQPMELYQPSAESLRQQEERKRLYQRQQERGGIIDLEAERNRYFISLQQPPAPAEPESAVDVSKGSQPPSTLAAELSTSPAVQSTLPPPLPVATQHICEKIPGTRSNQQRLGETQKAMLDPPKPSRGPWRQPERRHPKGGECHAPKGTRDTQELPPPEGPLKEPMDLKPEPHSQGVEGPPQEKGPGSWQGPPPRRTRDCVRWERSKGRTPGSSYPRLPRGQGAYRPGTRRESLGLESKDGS

Key:
Assay in all cases: log2 fold change, soluble protein after heating vs DMSO (PISA); higher = thermal stabilisation; K562 cells, 10 uM, 30 min; active = over 0.2 and 3.5 SD of the protein, either way, in both replicates (recomputed)
[1] = compound: Cc1ccc(NC(=O)c2ccc(CN3CC[C@H](N(C)C)C3)c(C(F)(F)F)c2)cc1Nc1nccc(-c2cncnc2)n1 [bafetinib]
In short: (§1)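 Aliquots of K562 cells (2×10^6 cells/mL) treated with 10 μM compound for 30 min were heated for 3 min over 48°C-58°C. After pooling and extraction in PBS with 0.5% NP-40 at 4°C, soluble protein from a 21,000xg, 90 min spin was quantified by TMTpro 16plex LC-MS/MS with channel sums equalised. Thermal stability is expressed against control samples, from duplicates, as a log2 fold change.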

[2] = compound: Cc1cccc(CC(=O)N2CCc3c2ccc(-c2cn(C)c4ncnc(N)c24)c3F)n1
In short: as §1

[3] = compound: Cc1cn(-c2cc(NC(=O)c3ccc(C)c(Nc4nccc(-c5cccnc5)n4)c3)cc(C(F)(F)F)c2)cn1 [nilotinib]
In short: as §1

[4] = compound: Cc1nc(Nc2n[nH]c3c2CN(C(=O)N[C@H](CN(C)C)c2ccccc2)C3(C)C)c2sccc2n1
In short: as §1

[5] = compound: Cc1nc(Nc2ncc(C(=O)Nc3c(C)cccc3Cl)s2)cc(N2CCN(CCO)CC2)n1 [dasatinib]
In short: as §1

[6] = compound: Cc1ncc(-c2ccnc(Nc3ccc(S(C)(=O)=O)cc3)n2)n1C(C)C
In short: as §1

[7] = compound: Cn1cc(-c2ccc3c(c2)CCN3C(=O)Cc2cccc(C(F)(F)F)c2)c2c(N)ncnc21
In short: as §1

[8] = compound: Cn1cc(-c2ccc3nnc(C(F)(F)c4ccc5ncccc5c4)n3n2)cn1
In short: as §1

[9] = compound: Cn1cncc1[C@@](N)(c1ccc(Cl)cc1)c1ccc2c(c1)c(-c1cccc(Cl)c1)cc(=O)n2C [tipifarnib]
In short: as §1

[10] = compound: FC(F)(F)c1ccc(/C=C/c2nc(COc3ccc(CCCCn4ccnn4)cc3)co2)cc1 [mubritinib]
In short: as §1

[11] = compound: NC(=O)Nc1cc(-c2cccc(F)c2)sc1C(=O)N[C@H]1CCCNC1
In short: as §1

[12] = compound: NC(=O)c1cnc(N[C@@H]2CCCC[C@@H]2N)nc1Nc1cccc(-n2nccn2)c1
In short: as §1

[13] = compound: NC1(c2ccc(-c3nc4ccn5c(=O)[nH]nc5c4cc3-c3ccccc3)cc2)CCC1
In short: as §1

[14] = compound: NCC(=O)Nc1ccc(-n2nc(C(F)(F)F)cc2-c2ccc3c(ccc4ccccc43)c2)cc1
In short: as §1

[15] = compound: Nc1ccccc1NC(=O)c1ccc(CNC(=O)OCc2cccnc2)cc1 [entinostat]
In short: as §1

[16] = compound: O=C(CCCCCCC(=O)Nc1ccccc1)NO [vorinostat]
In short: as §1

[17] = compound: O=C(CCCCCCNC(=O)c1cnc(N(c2ccccc2)c2ccccc2Cl)nc1)NO [citarinostat]
In short: as §1

[18] = compound: O=C(O)c1ccc2c(c1)nc(Nc1cccc(Cl)c1)c1ccncc12 [silmitasertib]
In short: as §1

[19] = compound: O=C1NC(=O)C(c2cnc3ccccn23)=C1c1cn2c3c(cc(F)cc13)CN(C(=O)N1CCCCC1)CC2
In short: as §1

[20] = compound: c1cc(OCCN2CCCCC2)cc(-c2n[nH]c3ccc(-c4nnc[nH]4)cc23)c1
In short: as §1

Measured: log2 fold change

RPL14 (UniProt P50914)
inactive: [1] 0.595 | [2] 0 | [3] 0.039 | [4] 0.261 | [5] 0.32 | [6] -0.037 | [7] -0.505 | [8] -0.137 | [9] 0.452 | [10] -0.364 | [11] 0.252 | [12] 0.168 | [13] 0.408 | [14] 0.383 | [15] -0.127 | [16] 0.017 | [17] -0.214 | [18] 0.162 | [19] 0.33 | [20] -0.29

RPP38 (UniProt P78345)
inactive: [1] 0.042 | [2] -0.02 | [3] 0.013 | [4] -0.086 | [5] 0.012 | [6] -0.02 | [7] -0.026 | [8] -0.009 | [9] 0.055 | [10] 0.021 | [11] -0.04 | [12] -0.025 | [13] 0.047 | [14] -0.018 | [15] 0.016 | [16] 0.034 | [17] 0.009 | [18] 0.016 | [19] -0.022 | [20] -0.057

RPS3 (UniProt P23396)
inactive: [1] 0.219 | [2] -0.004 | [3] -0.009 | [4] 0.193 | [5] 0.063 | [6] -0.056 | [7] -0.132 | [8] -0.028 | [9] 0.075 | [10] -0.045 | [11] -0.006 | [12] 0.05 | [13] 0.117 | [14] 0.033 | [15] -0.055 | [16] 0.015 | [17] -0.035 | [18] -0.008 | [19] 0.029 | [20] -0.145

RPS6KC1 (UniProt Q96S38)
inactive: [1] -0.247 | [2] 0.238 | [3] 0.009 | [4] -0.147 | [5] 0.031 | [6] 0.009 | [7] 0.042 | [8] -0.056 | [9] 0.037 | [10] 0.035 | [11] -0.048 | [12] -0.159 | [13] -0.071 | [14] 0.005 | [15] 0.07 | [16] 0.134 | [17] 0.016 | [18] 0.117 | [19] -0.019 | [20] 0.014

RPL10 (UniProt P27635)
inactive: [1] 0.446 | [2] -0.005 | [3] -0.013 | [4] 0.232 | [5] 0.155 | [6] -0.038 | [7] -0.414 | [8] -0.178 | [9] 0.189 | [10] -0.281 | [11] 0.195 | [12] 0.133 | [13] 0.371 | [14] 0.21 | [15] -0.053 | [16] 0.013 | [17] -0.158 | [18] 0.117 | [19] 0.28 | [20] -0.281

RPL27A (UniProt P46776)
inactive: [1] 0.39 | [2] -0.003 | [3] 0.073 | [4] 0.215 | [5] 0.295 | [6] -0.015 | [7] -0.542 | [8] -0.233 | [9] 0.32 | [10] -0.271 | [11] 0.141 | [12] 0.115 | [13] 0.388 | [14] 0.243 | [15] -0.065 | [16] -0.068 | [17] -0.179 | [18] 0.167 | [19] 0.204 | [20] -0.243

RPL24 (UniProt P83731)
inactive: [1] 0.363 | [2] 0.021 | [3] 0.056 | [4] 0.158 | [5] 0.197 | [6] -0.026 | [7] -0.399 | [8] -0.161 | [9] 0.176 | [10] -0.194 | [11] 0.207 | [12] 0.219 | [13] 0.329 | [14] 0.205 | [15] -0.022 | [16] -0.031 | [17] -0.124 | [18] 0.087 | [19] 0.143 | [20] -0.173

RPL32 (UniProt P62910)
inactive: [1] 0.49 | [2] 0.024 | [3] -0.003 | [4] 0.257 | [5] 0.234 | [6] -0.045 | [7] -0.497 | [8] -0.142 | [9] 0.275 | [10] -0.276 | [11] 0.224 | [12] 0.213 | [13] 0.387 | [14] 0.296 | [15] -0.058 | [16] -0.15 | [17] -0.162 | [18] 0.177 | [19] 0.261 | [20] -0.298

RPL3L (UniProt Q92901)
inactive: [1] 0.589 | [2] -0.001 | [3] -0.06 | [4] 0.272 | [5] 0.31 | [6] -0.04 | [7] -0.455 | [8] -0.231 | [9] 0.387 | [10] -0.422 | [11] 0.284 | [12] 0.185 | [13] 0.407 | [14] 0.31 | [15] -0.06 | [16] -0.071 | [17] -0.251 | [18] 0.237 | [19] 0.303 | [20] -0.456

RNF25 (UniProt Q96BH1)
inactive: [1] -0.008 | [2] 0 | [3] -0.037 | [4] -0.023 | [5] -0.004 | [6] -0.006 | [7] 0.07 | [8] -0.004 | [9] -0.035 | [10] 0.094 | [11] -0.014 | [12] 0.012 | [13] -0.063 | [14] -0.035 | [15] 0.037 | [16] -0.076 | [17] 0.098 | [18] -0.021 | [19] -0.032 | [20] -0.045

RPL23A (UniProt P62750)
inactive: [1] 0.315 | [2] -0.001 | [3] 0.008 | [4] 0.155 | [5] 0.167 | [6] -0.027 | [7] -0.267 | [8] -0.15 | [9] 0.106 | [10] -0.179 | [11] 0.151 | [12] 0.146 | [13] 0.344 | [14] 0.182 | [15] -0.072 | [16] -0.008 | [17] -0.112 | [18] 0.078 | [19] 0.153 | [20] -0.151

RPS12 (UniProt P25398)
inactive: [1] 0.112 | [2] 0.006 | [3] 0.002 | [4] 0.126 | [5] 0.08 | [6] -0.012 | [7] -0.013 | [8] -0.004 | [9] 0.049 | [10] -0.08 | [11] 0.006 | [12] 0.073 | [13] 0.134 | [14] 0.068 | [15] -0.032 | [16] -0.002 | [17] 0.009 | [18] -0.042 | [19] 0.076 | [20] -0.113

RPL36A (UniProt P83881)
inactive: [1] 0.386 | [2] -0.001 | [3] -0.013 | [4] 0.112 | [5] 0.173 | [6] -0.07 | [7] -0.325 | [8] -0.174 | [9] 0.222 | [10] -0.255 | [11] 0.084 | [12] 0.102 | [13] 0.394 | [14] 0.077 | [15] -0.174 | [16] 0 | [17] -0.175 | [18] 0.14 | [19] 0.343 | [20] -0.267

RPL18A (UniProt Q02543)
inactive: [1] 0.549 | [2] 0.016 | [3] 0.01 | [4] 0.272 | [5] 0.352 | [6] -0.053 | [7] -0.618 | [8] -0.192 | [9] 0.478 | [10] -0.346 | [11] 0.22 | [12] 0.291 | [13] 0.441 | [14] 0.36 | [15] -0.094 | [16] -0.028 | [17] -0.192 | [18] 0.218 | [19] 0.28 | [20] -0.312

RPS11 (UniProt P62280)
inactive: [1] 0.386 | [2] 0 | [3] -0.003 | [4] 0.254 | [5] 0.142 | [6] -0.054 | [7] -0.348 | [8] -0.147 | [9] 0.23 | [10] -0.185 | [11] 0.097 | [12] 0.148 | [13] 0.279 | [14] 0.091 | [15] -0.077 | [16] -0.023 | [17] -0.125 | [18] 0.039 | [19] 0.121 | [20] -0.212

RPL31 (UniProt P62899)
inactive: [1] 0.342 | [2] 0.024 | [3] 0.001 | [4] 0.179 | [5] 0.14 | [6] -0.041 | [7] -0.231 | [8] -0.082 | [9] 0.151 | [10] -0.095 | [11] 0.042 | [12] 0.099 | [13] 0.26 | [14] 0.075 | [15] -0.079 | [16] -0.012 | [17] -0.09 | [18] 0.048 | [19] 0.104 | [20] -0.12
